One substance from publication doi:10.1101/2021.12.10.472004 (bioRxiv, 2021) can be followed below.

In assay [1] the target is T1, RhAG (human (endogenous in red blood cells)) (UniProt Q02094).
T1 sequence: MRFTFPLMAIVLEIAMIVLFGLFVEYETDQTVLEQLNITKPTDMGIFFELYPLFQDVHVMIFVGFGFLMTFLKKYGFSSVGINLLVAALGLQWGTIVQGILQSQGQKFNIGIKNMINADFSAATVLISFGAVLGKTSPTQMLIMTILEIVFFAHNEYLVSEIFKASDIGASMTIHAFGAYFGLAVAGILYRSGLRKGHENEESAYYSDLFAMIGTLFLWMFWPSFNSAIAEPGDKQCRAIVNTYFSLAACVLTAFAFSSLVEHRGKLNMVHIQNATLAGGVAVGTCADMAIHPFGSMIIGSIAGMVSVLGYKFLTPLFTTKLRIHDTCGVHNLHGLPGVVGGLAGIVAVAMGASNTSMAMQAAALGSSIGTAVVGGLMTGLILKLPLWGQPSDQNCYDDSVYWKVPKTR
In words: cross-linking.

Assay [2] addresses T2, Band 4.2 (human (endogenous in red blood cells)) (UniProt P16452).
T2 sequence: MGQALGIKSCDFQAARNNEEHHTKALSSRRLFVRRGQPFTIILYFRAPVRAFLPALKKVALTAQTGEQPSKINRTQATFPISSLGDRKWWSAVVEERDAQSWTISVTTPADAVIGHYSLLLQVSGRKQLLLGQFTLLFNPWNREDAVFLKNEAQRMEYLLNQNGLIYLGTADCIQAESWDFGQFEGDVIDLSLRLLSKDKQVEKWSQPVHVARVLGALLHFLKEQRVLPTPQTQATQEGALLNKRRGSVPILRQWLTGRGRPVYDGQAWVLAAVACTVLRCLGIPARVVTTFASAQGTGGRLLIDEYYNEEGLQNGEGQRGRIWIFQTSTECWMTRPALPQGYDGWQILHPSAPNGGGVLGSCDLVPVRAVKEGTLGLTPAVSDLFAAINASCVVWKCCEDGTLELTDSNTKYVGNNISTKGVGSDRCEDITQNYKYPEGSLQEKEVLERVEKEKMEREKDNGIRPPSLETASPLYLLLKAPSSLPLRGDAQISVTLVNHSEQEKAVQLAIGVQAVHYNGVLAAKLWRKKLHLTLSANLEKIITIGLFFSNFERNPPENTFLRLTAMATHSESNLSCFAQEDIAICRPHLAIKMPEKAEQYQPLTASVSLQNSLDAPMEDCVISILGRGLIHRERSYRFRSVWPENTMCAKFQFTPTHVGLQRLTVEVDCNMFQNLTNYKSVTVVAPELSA
The assay can be described thus: cross-linking.

Results are given in words; binding and its absence hold for the method and conditions named. In cells and extracts the contact can be indirect. Binding can be weak; no strength is given.

Turning to “RhCE/D (human (endogenous in red blood cells))”, the binding result in assay [1] and in assay [2] was “binds” each time.
